Patent US20140371080

Protein sequences, listed by entry. Tags and fused reporters are not part of them. Lines headed by an entry give the natural chain unless they say otherwise; changes in a name come on top.
UniProt P00573: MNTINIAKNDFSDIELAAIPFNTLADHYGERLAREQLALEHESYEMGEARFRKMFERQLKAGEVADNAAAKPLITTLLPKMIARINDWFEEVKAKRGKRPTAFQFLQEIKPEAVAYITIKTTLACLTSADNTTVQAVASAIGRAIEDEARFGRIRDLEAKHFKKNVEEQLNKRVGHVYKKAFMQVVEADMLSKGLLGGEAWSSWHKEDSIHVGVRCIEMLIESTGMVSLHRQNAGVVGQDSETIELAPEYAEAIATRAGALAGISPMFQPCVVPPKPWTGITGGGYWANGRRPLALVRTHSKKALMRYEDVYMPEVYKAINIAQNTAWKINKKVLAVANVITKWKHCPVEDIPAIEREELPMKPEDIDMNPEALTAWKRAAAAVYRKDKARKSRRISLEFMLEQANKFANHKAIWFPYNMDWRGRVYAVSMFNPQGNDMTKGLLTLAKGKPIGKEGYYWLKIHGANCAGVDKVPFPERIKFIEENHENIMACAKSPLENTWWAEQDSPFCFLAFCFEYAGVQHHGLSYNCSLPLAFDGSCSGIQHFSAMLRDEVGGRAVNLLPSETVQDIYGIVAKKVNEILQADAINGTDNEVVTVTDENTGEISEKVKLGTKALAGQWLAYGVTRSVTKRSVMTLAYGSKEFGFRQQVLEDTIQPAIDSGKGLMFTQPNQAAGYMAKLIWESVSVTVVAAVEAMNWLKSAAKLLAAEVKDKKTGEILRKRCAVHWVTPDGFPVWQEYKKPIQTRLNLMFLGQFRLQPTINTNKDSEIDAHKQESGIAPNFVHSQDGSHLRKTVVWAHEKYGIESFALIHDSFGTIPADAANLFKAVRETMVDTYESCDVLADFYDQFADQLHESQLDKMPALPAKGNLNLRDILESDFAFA

Biological target: T7 RNA polymerase (Bacteriophage T7) (UniProt P00573)
Test: EMSA
Settings: transcription from T7 promoter template, polymerase halted at Tus-bound Ter; nearly 100 percent of templates in halted complex; purified recombinant protein; protein details: 6xHis, expressed in E. coli

Q: Which “activity on this sequence” value does the source give for “TAATACGACTCACTATAGG (double strand) [T7 promoter in halting template]” here?
A: Its value is “active”.
